No constants are given. Whether binding was seen depends on the method and setting. In cells and extracts the contact can be indirect. Some entries that bind do so weakly or less than the wild type.
How the values were obtained:
[1] = target: chromatin associated factor-1 (CAF-1) p150 subunit (human (endogenous in HeLa S3)) (UniProt Q13111); experiment: co-IP; Flag-IP of eH3.2 from nuclear extract, Flag peptide elution; second IP with anti-CAF-1 p150, eluted with specific peptide; unbound CAF-1-depleted material re-immunoprecipitated with anti-HA, HA peptide elution; western blot
[2] = target: mini chromosome maintenance protein 2 (MCM2) (human (endogenous in HeLa S3)) (UniProt P49736); experiment: co-IP; sequential IP (ReIP): Flag-purified material from S3-eH3.2 subjected to a second IP with antibody to MCM2, CAF-1 p150 or Asf1a; input, IP and flow-through immunoblotted
[3] = target: anti-silencing factor 1 isoform a (Asf1a) (human (endogenous in HeLa S3)) (UniProt Q9Y294); experiment: as above

Chains of the proteins cited; added tags and fusions are not shown.
UniProt Q13111: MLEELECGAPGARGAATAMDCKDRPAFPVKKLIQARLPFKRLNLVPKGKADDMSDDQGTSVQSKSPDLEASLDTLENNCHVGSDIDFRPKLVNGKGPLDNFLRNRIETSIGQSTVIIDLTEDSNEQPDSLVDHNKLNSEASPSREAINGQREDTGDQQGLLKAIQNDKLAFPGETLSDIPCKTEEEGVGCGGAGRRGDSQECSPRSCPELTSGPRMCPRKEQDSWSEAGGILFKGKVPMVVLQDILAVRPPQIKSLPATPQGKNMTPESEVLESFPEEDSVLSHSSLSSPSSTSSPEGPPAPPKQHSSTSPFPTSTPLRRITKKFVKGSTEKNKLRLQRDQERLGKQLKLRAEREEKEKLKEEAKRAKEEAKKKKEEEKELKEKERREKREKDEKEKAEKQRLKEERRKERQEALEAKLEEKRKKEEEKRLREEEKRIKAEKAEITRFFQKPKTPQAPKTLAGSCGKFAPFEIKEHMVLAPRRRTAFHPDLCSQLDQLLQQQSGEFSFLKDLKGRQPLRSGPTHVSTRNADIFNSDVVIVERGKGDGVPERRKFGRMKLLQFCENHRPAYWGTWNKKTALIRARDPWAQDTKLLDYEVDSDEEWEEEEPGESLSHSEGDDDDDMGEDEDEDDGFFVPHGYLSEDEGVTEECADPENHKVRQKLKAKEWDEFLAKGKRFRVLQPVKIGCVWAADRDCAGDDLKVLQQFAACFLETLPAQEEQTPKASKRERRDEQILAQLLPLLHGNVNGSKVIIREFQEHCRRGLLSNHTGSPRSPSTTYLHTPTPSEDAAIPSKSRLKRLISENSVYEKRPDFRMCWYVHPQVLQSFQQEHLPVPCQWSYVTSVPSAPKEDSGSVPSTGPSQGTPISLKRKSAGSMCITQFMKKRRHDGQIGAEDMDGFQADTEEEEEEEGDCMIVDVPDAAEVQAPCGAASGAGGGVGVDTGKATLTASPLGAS
UniProt Q9NVP2: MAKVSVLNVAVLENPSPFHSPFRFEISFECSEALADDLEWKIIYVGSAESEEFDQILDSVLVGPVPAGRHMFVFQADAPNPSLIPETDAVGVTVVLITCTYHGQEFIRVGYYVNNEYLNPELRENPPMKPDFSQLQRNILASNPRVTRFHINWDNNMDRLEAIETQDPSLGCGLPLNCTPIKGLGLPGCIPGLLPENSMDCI

Row | Substance | binding [1] | binding [2] | binding [3]
1 | anti-silencing factor 1 isoform a (Asf1a) (from UniProt Q9Y294 1-204) | no binding |  | 
2 | anti-silencing factor 1 isoform b (Asf1b) (from UniProt Q9NVP2 1-202) |  | binds | no binding
3 | chromatin associated factor-1 (CAF-1) p150 subunit (from UniProt Q13111 1-956) |  |  | no binding

— publication PMC3973350
